# Measurements from the supplement of paper PMC8728848.
# The list shows a part of the results.
# B1: PX14379D-pdi-530-26-530 (Parabacteroides distasonis) (protein)
# chain: DETVYDKLPADDFGQSTAELNALIGNSHNTMKKFWTEYMHLSECSGSMAVTPTRRGGDWYDGGQYREIYMHTWTSQTSRVKSAWKAATEAIGTCNEAIRKLQNSEILTEEEKAQDVADLRGVRAFWIYVMMDYWGNIPLLTEFHPTDKVFPGNSSRQEVFDWLIQEVEEIKDICPPATTENYGSFTQGAAYSLLAKLYLNAEAWGVTFSGNAYQKVIDNCDKVMAMGYILEPNWKDNFSVTNENSKEAILAATFSSSDTGNDGNVKNELHNNTLHYKDYLSLGITASGTWNGICAQPEYVRLFDEEDARLDGTFLTGLMIDKSTGKPIMTDHNNELNHTIDVNMIPGMEYDGTNWSAVEQHDGARCFKWEFASDLTSSMGNDFHIFRLADIYLMKAEALLRGGGSVSEATALVNTIRERGYGNSDHNYATVTLKEVQLERRLELAWEVYSRQDDIRFGCFTTGMWPQSNCERKADDYLKLLPVSQDAWQVNPNLKQNPGYAAFSK
# Assays:
# Experiment in all cases: glycan array binding signal (z-score within array); higher = stronger binding
# Conditions in all cases: glycan notation: IUPAC condensed, linker removed
# [1] = target: Neu5Ac(a2-3)Gal(b1-3)GalNAc
# Summary of the method: (§1)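 The Consortium for Functional Glycomics database supplied 3228 glycan arrays, of which those lacking an available protein sequence were dropped. The binding signal, a within-array Z-score, was averaged across arrays of the same protein sequence and across linkers. Negative scores can be read as non-binding.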
# [2] = target: Neu5Ac(a2-3)Gal(b1-3)GalNAc(b1-3)Gal(a1-4)Gal(b1-4)Glc
# Summary of the method: as §1
# [3] = target: Neu5Ac(a2-3)Gal(b1-3)GalNAc(b1-4)[Neu5Ac(a2-3)]Gal(b1-4)Glc
# Summary of the method: as §1
# [4] = target: Neu5Ac(a2-3)Gal(b1-3)GalNAc(b1-4)[Neu5Ac(a2-8)Neu5Ac(a2-3)]Gal(b1-4)Glc
# Summary of the method: as §1
# [5] = target: Neu5Ac(a2-3)Gal(b1-3)GalNAc6S
# Summary of the method: as §1
# [6] = target: Neu5Ac(a2-3)Gal(b1-3)GlcNAc
# Summary of the method: as §1
# [7] = target: Neu5Ac(a2-3)Gal(b1-3)GlcNAc(b1-2)Man
# Summary of the method: as §1
# [8] = target: Neu5Ac(a2-3)Gal(b1-3)GlcNAc(b1-2)Man(a1-3)[GlcNAc(b1-4)][Neu5Ac(a2-3)Gal(b1-3)GlcNAc(b1-2)Man(a1-6)]Man(b1-4)GlcNAc(b1-4)GlcNAc
# Summary of the method: as §1
# [9] = target: Neu5Ac(a2-3)Gal(b1-3)GlcNAc(b1-2)Man(a1-3)[Neu5Ac(a2-3)Gal(b1-3)GlcNAc(b1-2)Man(a1-6)]Man(b1-4)GlcNAc(b1-4)GlcNAc
# Summary of the method: as §1
# [10] = target: Neu5Ac(a2-3)Gal(b1-3)GlcNAc(b1-3)Gal(b1-3)GlcNAc
# Summary of the method: as §1
# [11] = target: Neu5Ac(a2-3)Gal(b1-3)GlcNAc(b1-3)Gal(b1-4)GlcNAc
# Summary of the method: as §1
# [12] = target: Neu5Ac(a2-3)Gal(b1-3)GlcNAc(b1-3)GalNAc
# Summary of the method: as §1
# [13] = target: Neu5Ac(a2-3)Gal(b1-3)GlcNAc(b1-4)Gal(b1-4)Glc
# Summary of the method: as §1
# [14] = target: Neu5Ac(a2-3)Gal(b1-3)GlcNAc(b1-6)GalNAc
# Summary of the method: as §1
# [15] = target: Neu5Ac(a2-3)Gal(b1-3)GlcNAc6S
# Summary of the method: as §1
# [16] = target: Neu5Ac(a2-3)Gal(b1-3)[Fuc(a1-4)]GlcNAc
# Summary of the method: as §1
# [17] = target: Neu5Ac(a2-3)Gal(b1-3)[Fuc(a1-4)]GlcNAc(b1-3)Gal(b1-3)[Fuc(a1-4)]GlcNAc
# Summary of the method: as §1
# [18] = target: Neu5Ac(a2-3)Gal(b1-3)[Fuc(a1-4)]GlcNAc(b1-3)Gal(b1-4)[Fuc(a1-3)]GlcNAc
# Summary of the method: as §1
# [19] = target: Neu5Ac(a2-3)Gal(b1-3)[GlcNAc(b1-6)]GalNAc
# Summary of the method: as §1
# [20] = target: Neu5Ac(a2-3)Gal(b1-3)[Neu5Ac(a2-6)]GalNAc
# Summary of the method: as §1
# [21] = target: Neu5Ac(a2-3)Gal(b1-3)[Neu5Ac(a2-6)]GlcNAc(b1-3)[Fuc(a1-3)[Gal(b1-4)]GlcNAc(b1-6)]Gal(b1-4)Glc
# Summary of the method: as §1
# [22] = target: Neu5Ac(a2-3)Gal(b1-3)]Neu5Ac(a2-3)Gal(b1-4)]GlcNAc
# Summary of the method: as §1
# Neu5Ac(a2-3)Gal(b1-4)Glc = target: Neu5Ac(a2-3)Gal(b1-4)Glc
# Summary of the method: as §1
# [23] = target: Neu5Ac(a2-3)Gal(b1-4)GlcNAc
# Summary of the method: as §1
# [24] = target: Neu5Ac(a2-3)Gal(b1-4)GlcNAc(b1-2)Man
# Summary of the method: as §1
# [25] = target: Neu5Ac(a2-3)Gal(b1-4)GlcNAc(b1-2)Man(a1-3)[GlcNAc(b1-4)][Neu5Ac(a2-3)Gal(b1-4)GlcNAc(b1-2)Man(a1-6)]Man(b1-4)GlcNAc(b1-4)GlcNAc
# Summary of the method: as §1
# [26] = target: Neu5Ac(a2-3)Gal(b1-4)GlcNAc(b1-2)Man(a1-3)[Neu5Ac(a2-3)Gal(b1-4)GlcNAc(b1-2)Man(a1-6)]Man(b1-4)GlcNAc(b1-4)GlcNAc
# Summary of the method: as §1
# [27] = target: Neu5Ac(a2-3)Gal(b1-4)GlcNAc(b1-2)Man(a1-3)[Neu5Ac(a2-3)Gal(b1-4)GlcNAc(b1-2)Man(a1-6)]Man(b1-4)GlcNAc(b1-4)[Fuc(a1-6)]GlcNAc
# Summary of the method: as §1
# [28] = target: Neu5Ac(a2-3)Gal(b1-4)GlcNAc(b1-2)Man(a1-3)[Neu5Ac(a2-6)Gal(b1-4)GlcNAc(b1-2)Man(a1-6)]Man(b1-4)GlcNAc(b1-4)GlcNAc
# Summary of the method: as §1
# [29] = target: Neu5Ac(a2-3)Gal(b1-4)GlcNAc(b1-2)[Neu5Ac(a2-3)Gal(b1-4)GlcNAc(b1-4)]Man(a1-3)[GlcNAc(b1-4)][Neu5Ac(a2-3)Gal(b1-4)GlcNAc(b1-2)[Neu5Ac(a2-3)Gal(b1-4)GlcNAc(b1-6)]Man(a1-6)]Man(b1-4)GlcNAc(b1-4)GlcNAc
# Summary of the method: as §1
# [30] = target: Neu5Ac(a2-3)Gal(b1-4)GlcNAc(b1-2)[Neu5Ac(a2-3)Gal(b1-4)GlcNAc(b1-4)]Man(a1-3)[GlcNAc(b1-4)][Neu5Ac(a2-3)Gal(b1-4)GlcNAc(b1-4)Man(a1-6)]Man(b1-4)GlcNAc(b1-4)GlcNAc
# Summary of the method: as §1
# [31] = target: Neu5Ac(a2-3)Gal(b1-4)GlcNAc(b1-2)[Neu5Ac(a2-3)Gal(b1-4)GlcNAc(b1-6)]Man(a1-6)[Neu5Ac(a2-3)Gal(b1-4)GlcNAc(b1-2)Man(a1-3)]Man(b1-4)GlcNAc(b1-4)GlcNAc
# Summary of the method: as §1
# [32] = target: Neu5Ac(a2-3)Gal(b1-4)GlcNAc(b1-2)[Neu5Ac(a2-3)Gal(b1-4)GlcNAc(b1-6)]Man(a1-6)[Neu5Ac(a2-3)Gal(b1-4)GlcNAc(b1-2)Man(a1-3)][GlcNAc(b1-4)]Man(b1-4)GlcNAc(b1-4)GlcNAc
# Summary of the method: as §1
# [33] = target: Neu5Ac(a2-3)Gal(b1-4)GlcNAc(b1-3)Gal
# Summary of the method: as §1
# [34] = target: Neu5Ac(a2-3)Gal(b1-4)GlcNAc(b1-3)Gal(b1-3)GlcNAc
# Summary of the method: as §1
# [35] = target: Neu5Ac(a2-3)Gal(b1-4)GlcNAc(b1-3)Gal(b1-4)GlcNAc
# Summary of the method: as §1
# [36] = target: Neu5Ac(a2-3)Gal(b1-4)GlcNAc(b1-3)Gal(b1-4)GlcNAc(b1-2)Man(a1-3)[Neu5Ac(a2-3)Gal(b1-4)GlcNAc(b1-3)Gal(b1-4)GlcNAc(b1-2)Man(a1-6)]Man(b1-4)GlcNAc(b1-4)GlcNAc
# Summary of the method: as §1
binder,measurement,setting,value
B1,glycan array binding signal (z-score),[1],-0.635
same,glycan array binding signal (z-score),[2],0.43
same,glycan array binding signal (z-score),[3],-0.359
same,glycan array binding signal (z-score),[4],-0.532
same,glycan array binding signal (z-score),[5],-0.451
same,glycan array binding signal (z-score),[6],-0.529
same,glycan array binding signal (z-score),[7],0.26
same,glycan array binding signal (z-score),[8],-0.449
same,glycan array binding signal (z-score),[9],-0.573
same,glycan array binding signal (z-score),[10],-0.698
same,glycan array binding signal (z-score),[11],-0.348
same,glycan array binding signal (z-score),[12],-0.499
same,glycan array binding signal (z-score),[13],-0.388
same,glycan array binding signal (z-score),[14],0.072
same,glycan array binding signal (z-score),[15],-0.195
same,glycan array binding signal (z-score),[16],0.024
same,glycan array binding signal (z-score),[17],-0.559
same,glycan array binding signal (z-score),[18],-1.12
same,glycan array binding signal (z-score),[19],0.243
same,glycan array binding signal (z-score),[20],-0.358
same,glycan array binding signal (z-score),[21],-0.248
same,glycan array binding signal (z-score),[22],-0.6
same,glycan array binding signal (z-score),Neu5Ac(a2-3)Gal(b1-4)Glc,-0.046
same,glycan array binding signal (z-score),[23],-0.826
same,glycan array binding signal (z-score),[24],0.648
same,glycan array binding signal (z-score),[25],-0.322
same,glycan array binding signal (z-score),[26],0.206
same,glycan array binding signal (z-score),[27],0.415
same,glycan array binding signal (z-score),[28],-0.885
same,glycan array binding signal (z-score),[29],-0.169
same,glycan array binding signal (z-score),[30],-0.482
same,glycan array binding signal (z-score),[31],0.553
same,glycan array binding signal (z-score),[32],-1.33
same,glycan array binding signal (z-score),[33],-0.757
same,glycan array binding signal (z-score),[34],-1.24
same,glycan array binding signal (z-score),[35],-1.08
same,glycan array binding signal (z-score),[36],0.558

# Some of the entries above, set out differently.
binder	measurement	setting	value
B1	glycan array binding signal (z-score)	[2]	0.43
same	glycan array binding signal (z-score)	[3]	-0.359
